Counter-ions that a name gives are not always drawn. The list shows a part of the results. Hit calls seldom repeat between salt and free forms of one compound.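 In K562 cells expressing nanoluciferase-fused kinases, luminescence was recorded at 4 h intervals between 2 and 18 h, normalized as percent of control with DMSO at 100% and a positive control at 0%. A significant (2 sigma) signal drop marks a time point as decreased. The authors' rule for a hit is not shown and takes in more than the number of time points.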
Experiments:
Assay in all cases: number of time points (of 5) at which kinase-Nluc abundance scored as decreased, DMSO-normalised (count); higher = more persistent destabilization
Conditions in all cases: K562; 2-18 h
CAMK2A = CAMK2A (UniProt Q9UQM7)
CAMK2G = CAMK2G (UniProt Q13555)
CDK10 = CDK10 (UniProt Q15131)
CDK3 = CDK3 (UniProt Q00526)
CDK5 = CDK5 (UniProt Q00535)
CDK6 = CDK6 (UniProt Q00534)
CHEK2 = CHEK2 (UniProt O96017)
CSF1R = CSF1R (UniProt P07333)
CSK = CSK (UniProt P41240)
CSNK1A1 = CSNK1A1 (UniProt P48729)
CSNK1D = CSNK1D (UniProt P48730)
DDR1 = DDR1 (UniProt Q08345)
DYRK1B = DYRK1B (UniProt Q9Y463)
DYRK2 = DYRK2 (UniProt Q92630)
EGFR = EGFR (UniProt P00533)
EGFR_G719S = EGFR_G719S (UniProt P00533)
EGFR_G719S_T790M = EGFR_G719S_T790M (UniProt P00533)
EGFR_L718V = EGFR_L718V (UniProt P00533)
EGFR_L858R = EGFR_L858R (UniProt P00533)
CDK2 = CDK2 (UniProt P24941)

By UniProt entry, the sequences of proteins in these tests, tags left out. Where a name states a change or a piece, a line headed by the entry shows the natural chain unless it says otherwise.
UniProt Q9UQM7, whole entry: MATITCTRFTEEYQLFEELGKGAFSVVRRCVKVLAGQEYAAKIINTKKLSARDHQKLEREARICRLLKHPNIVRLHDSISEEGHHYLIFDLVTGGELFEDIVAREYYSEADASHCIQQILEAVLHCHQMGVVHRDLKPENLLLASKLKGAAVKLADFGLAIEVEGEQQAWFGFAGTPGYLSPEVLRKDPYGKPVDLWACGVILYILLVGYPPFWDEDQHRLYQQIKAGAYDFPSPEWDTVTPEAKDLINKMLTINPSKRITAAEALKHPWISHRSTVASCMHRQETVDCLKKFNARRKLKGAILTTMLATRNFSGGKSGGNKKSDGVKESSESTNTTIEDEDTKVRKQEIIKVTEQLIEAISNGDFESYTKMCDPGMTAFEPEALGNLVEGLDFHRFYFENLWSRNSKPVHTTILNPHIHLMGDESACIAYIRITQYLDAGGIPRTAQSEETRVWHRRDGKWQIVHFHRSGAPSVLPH
UniProt Q15131: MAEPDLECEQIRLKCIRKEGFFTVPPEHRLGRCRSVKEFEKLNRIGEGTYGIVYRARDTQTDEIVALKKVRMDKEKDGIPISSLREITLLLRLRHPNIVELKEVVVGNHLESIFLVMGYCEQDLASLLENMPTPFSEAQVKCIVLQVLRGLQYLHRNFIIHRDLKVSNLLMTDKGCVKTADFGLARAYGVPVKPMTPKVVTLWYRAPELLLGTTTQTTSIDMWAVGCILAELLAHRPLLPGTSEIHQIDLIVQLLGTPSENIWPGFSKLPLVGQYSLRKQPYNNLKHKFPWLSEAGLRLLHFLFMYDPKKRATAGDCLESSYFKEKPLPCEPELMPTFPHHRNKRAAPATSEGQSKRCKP
UniProt Q00526: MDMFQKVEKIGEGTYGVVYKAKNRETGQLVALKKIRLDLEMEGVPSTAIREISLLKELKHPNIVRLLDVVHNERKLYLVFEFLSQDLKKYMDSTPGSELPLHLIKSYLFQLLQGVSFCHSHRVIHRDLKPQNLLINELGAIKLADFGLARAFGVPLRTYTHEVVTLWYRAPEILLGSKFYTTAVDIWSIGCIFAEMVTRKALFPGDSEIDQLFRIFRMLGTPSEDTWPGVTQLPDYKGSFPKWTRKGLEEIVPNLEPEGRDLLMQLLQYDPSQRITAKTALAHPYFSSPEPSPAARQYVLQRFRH
UniProt Q00535, whole entry, looked up: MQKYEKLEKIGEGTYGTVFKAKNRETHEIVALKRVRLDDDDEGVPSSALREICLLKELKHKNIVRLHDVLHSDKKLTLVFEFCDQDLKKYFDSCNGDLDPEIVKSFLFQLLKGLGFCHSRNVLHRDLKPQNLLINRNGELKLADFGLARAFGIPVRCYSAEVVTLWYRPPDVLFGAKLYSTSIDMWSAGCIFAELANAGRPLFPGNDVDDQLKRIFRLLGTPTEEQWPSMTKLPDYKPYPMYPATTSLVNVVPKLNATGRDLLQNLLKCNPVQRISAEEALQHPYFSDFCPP
UniProt O96017, whole entry: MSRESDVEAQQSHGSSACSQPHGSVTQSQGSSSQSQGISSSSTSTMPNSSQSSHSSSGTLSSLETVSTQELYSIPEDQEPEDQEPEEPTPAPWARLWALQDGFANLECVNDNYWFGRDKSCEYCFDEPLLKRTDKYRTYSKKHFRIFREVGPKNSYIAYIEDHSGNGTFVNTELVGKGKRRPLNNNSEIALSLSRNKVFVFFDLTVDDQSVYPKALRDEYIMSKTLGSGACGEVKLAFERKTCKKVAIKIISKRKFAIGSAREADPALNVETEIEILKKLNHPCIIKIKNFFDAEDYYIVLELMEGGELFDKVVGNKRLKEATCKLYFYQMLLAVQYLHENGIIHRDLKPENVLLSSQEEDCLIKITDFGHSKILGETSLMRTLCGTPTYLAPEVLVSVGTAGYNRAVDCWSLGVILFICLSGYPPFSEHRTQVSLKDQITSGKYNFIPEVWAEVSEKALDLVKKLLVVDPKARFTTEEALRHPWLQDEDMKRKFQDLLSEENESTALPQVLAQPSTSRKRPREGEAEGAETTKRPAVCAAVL
UniProt P07333, whole entry: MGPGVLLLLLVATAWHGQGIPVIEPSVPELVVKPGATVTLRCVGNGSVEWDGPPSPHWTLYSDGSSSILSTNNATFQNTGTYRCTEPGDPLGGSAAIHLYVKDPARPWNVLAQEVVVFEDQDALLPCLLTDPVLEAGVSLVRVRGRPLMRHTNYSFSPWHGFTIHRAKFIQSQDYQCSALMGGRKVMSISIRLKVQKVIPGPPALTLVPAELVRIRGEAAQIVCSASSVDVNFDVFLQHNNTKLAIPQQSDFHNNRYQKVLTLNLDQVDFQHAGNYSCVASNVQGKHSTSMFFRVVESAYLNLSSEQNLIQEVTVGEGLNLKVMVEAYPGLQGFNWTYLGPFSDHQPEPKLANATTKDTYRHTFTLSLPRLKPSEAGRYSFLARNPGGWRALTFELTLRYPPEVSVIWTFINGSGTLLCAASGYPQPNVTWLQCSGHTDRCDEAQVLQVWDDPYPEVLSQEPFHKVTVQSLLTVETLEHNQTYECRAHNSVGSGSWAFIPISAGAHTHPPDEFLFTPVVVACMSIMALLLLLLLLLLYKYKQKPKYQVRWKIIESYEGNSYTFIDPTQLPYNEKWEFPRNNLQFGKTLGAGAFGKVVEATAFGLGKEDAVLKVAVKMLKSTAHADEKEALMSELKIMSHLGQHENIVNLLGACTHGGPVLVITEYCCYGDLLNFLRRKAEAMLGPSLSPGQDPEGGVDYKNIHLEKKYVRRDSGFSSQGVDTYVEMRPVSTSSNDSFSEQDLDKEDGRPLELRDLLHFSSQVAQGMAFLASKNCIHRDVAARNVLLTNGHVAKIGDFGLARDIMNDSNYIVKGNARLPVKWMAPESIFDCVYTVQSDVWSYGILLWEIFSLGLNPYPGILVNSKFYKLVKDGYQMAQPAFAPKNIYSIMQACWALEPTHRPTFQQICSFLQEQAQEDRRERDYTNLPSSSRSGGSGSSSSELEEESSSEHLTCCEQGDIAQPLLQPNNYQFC
UniProt P41240: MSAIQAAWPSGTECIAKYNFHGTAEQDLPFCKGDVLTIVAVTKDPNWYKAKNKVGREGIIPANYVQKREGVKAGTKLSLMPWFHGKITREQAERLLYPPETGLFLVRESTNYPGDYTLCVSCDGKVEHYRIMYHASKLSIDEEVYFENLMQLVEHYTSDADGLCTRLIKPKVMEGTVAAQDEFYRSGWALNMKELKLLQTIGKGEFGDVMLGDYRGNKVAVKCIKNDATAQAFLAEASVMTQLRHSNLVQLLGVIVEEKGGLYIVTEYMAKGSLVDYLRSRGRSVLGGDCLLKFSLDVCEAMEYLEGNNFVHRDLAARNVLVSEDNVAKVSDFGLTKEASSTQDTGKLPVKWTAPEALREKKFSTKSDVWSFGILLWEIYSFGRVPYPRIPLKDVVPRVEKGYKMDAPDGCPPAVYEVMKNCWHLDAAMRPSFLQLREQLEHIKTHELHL
UniProt P48729: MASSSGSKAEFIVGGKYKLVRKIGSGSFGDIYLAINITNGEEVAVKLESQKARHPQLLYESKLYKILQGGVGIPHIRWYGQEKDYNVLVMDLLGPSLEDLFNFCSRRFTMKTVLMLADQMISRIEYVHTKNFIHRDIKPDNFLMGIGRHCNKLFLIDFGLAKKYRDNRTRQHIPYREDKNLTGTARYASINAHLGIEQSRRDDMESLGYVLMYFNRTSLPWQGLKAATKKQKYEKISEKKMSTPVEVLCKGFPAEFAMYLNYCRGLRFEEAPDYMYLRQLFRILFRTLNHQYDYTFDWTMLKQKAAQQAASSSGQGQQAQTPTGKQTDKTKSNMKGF
UniProt P48730: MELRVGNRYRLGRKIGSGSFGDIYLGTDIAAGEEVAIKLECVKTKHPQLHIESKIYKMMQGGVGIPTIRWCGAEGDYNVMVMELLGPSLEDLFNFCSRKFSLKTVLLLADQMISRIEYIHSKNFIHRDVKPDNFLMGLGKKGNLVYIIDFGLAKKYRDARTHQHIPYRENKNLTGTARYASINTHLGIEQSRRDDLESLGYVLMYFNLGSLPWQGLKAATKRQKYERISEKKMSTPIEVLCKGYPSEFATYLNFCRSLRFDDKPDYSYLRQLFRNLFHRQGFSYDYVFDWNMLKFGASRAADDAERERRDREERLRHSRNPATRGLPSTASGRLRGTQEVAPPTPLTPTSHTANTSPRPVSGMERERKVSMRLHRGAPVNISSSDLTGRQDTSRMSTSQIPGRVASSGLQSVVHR
UniProt Q08345: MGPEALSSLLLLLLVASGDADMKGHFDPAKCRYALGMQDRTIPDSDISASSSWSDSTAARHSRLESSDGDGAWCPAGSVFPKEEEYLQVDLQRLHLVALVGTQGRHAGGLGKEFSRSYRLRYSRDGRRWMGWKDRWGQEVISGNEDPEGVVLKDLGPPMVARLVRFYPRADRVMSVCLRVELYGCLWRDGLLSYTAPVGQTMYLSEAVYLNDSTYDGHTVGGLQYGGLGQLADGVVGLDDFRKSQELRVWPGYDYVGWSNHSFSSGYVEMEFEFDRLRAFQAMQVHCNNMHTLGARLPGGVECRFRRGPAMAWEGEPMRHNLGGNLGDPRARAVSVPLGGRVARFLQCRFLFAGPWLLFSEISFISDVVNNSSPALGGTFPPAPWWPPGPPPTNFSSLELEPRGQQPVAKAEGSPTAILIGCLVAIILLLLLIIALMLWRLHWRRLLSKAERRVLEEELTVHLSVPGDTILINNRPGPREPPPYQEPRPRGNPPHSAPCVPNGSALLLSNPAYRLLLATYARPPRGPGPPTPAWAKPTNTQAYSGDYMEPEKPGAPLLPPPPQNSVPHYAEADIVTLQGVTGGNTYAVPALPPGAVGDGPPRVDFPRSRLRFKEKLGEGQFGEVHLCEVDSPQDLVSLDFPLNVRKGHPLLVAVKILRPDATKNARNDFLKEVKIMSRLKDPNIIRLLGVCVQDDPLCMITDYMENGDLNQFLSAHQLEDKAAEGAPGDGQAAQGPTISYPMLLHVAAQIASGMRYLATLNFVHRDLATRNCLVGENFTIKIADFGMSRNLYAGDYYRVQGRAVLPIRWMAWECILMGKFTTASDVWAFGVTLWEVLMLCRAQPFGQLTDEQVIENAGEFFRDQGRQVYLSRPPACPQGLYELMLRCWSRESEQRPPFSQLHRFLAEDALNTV
UniProt Q9Y463, whole entry, looked up: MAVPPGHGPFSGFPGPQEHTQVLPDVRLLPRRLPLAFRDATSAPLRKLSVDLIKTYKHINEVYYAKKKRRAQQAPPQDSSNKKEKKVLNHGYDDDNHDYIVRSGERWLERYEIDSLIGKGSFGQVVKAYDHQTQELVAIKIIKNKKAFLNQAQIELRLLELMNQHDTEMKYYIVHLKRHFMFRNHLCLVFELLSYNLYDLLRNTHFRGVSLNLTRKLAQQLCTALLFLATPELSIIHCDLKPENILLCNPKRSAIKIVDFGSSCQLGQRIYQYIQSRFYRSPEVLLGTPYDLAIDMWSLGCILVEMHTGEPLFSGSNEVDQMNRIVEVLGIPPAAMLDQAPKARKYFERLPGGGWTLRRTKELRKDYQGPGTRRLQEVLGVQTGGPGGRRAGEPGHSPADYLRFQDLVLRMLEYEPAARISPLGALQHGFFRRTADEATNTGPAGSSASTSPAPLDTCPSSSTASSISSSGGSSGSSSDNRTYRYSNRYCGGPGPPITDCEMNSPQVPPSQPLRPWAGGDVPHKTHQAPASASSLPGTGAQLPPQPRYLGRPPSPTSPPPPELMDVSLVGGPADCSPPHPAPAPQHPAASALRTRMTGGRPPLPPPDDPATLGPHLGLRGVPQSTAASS
UniProt Q92630: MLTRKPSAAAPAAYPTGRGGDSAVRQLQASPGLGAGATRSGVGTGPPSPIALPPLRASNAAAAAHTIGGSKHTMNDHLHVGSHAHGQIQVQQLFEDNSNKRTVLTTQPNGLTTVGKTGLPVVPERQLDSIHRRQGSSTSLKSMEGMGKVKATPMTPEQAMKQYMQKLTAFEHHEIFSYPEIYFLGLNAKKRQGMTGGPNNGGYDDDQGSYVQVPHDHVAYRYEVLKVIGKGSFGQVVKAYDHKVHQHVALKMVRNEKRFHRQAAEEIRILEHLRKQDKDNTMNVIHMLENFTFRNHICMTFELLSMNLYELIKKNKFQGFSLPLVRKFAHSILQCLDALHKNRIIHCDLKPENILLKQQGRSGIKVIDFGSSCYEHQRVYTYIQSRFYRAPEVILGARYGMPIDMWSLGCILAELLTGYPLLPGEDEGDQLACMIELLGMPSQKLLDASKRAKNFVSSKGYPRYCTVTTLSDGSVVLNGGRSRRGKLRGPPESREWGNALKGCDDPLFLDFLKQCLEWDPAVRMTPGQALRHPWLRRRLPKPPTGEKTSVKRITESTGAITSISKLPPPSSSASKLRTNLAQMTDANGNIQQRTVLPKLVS

Structure (SMILES)	number of time points (CAMK2A)	number of time points (CAMK2G)	number of time points (CDK10)	number of time points (CDK3)	number of time points (CDK5)	number of time points (CDK6)	number of time points (CHEK2)	number of time points (CSF1R)	number of time points (CSK)	number of time points (CSNK1A1)	number of time points (CSNK1D)	number of time points (DDR1)	number of time points (DYRK1B)	number of time points (DYRK2)	number of time points (EGFR)	number of time points (EGFR_G719S)	number of time points (EGFR_G719S_T790M)	number of time points (EGFR_L718V)	number of time points (EGFR_L858R)	number of time points (CDK2)
NS(=O)(=O)c1ccc(Nc2nc(OCC3CCCCC3)c3[nH]cnc3n2)cc1 (10 µM)	0	0	0	0	0	0	0	0	0	0	0	0	0	0	0	0	0	0	0	–
COc1cc2ncnc(Nc3cccc(Cl)c3F)c2cc1OC(=O)N1CCN(C)C[C@H]1C [Zorifertinib] (10 µM)	0	0	0	0	–	0	0	0	0	0	0	0	0	0	0	0	0	0	0	0
CC(C)Oc1cc(Nc2nc(N[C@@H](C)c3ccc(F)cn3)ncc2Cl)n[nH]1 (10 µM)	0	0	0	0	–	0	0	0	0	0	0	0	0	0	0	0	0	0	0	0
CN1CCN(c2ccc(C(=O)Nc3n[nH]c4ccc(Cc5cc(F)cc(F)c5)cc34)c(NC3CCOCC3)c2)CC1 [Entrectinib] (2.5 µM)	0	0	0	0	–	0	0	0	0	–	0	0	0	0	0	0	0	0	0	0
COc1cc2ncnc(Nc3cccc(O)c3)c2cc1OC (10 µM)	0	2	1	1	0	0	1	1	0	1	2	2	1	3	2	2	2	1	2	–
COCCNCCc1cccc(Nc2ncc3c(n2)-c2ccccc2[C@H](c2ccccc2F)C3)c1 [Derazantinib] (2.5 µM)	0	0	0	0	0	0	0	–	0	0	0	0	0	0	1	3	0	0	0	0
CC(C)(C)c1nc2c3cc[nH]c(=O)c3c3cc(F)ccc3c2[nH]1 [Pyridone 6] (10 µM)	0	0	0	0	–	0	0	0	0	0	0	0	0	0	0	0	0	0	0	0
Cc1nc(-c2cnc(NC(C)C)n(C)c2=O)ccc1Oc1ccnc(-c2cnn(C)c2)c1 (2.5 µM)	0	0	0	0	0	0	0	–	0	0	0	0	0	1	0	0	0	0	0	0
CC1(C)CC=C(c2nc(C3CC(C)(C)OC(C)(C)C3)ccc2NC(=O)c2nc(C#N)c[nH]2)CC1 [Edicotinib] (2.5 µM)	0	0	0	0	0	0	0	–	0	0	0	0	0	0	0	0	0	0	0	0
Cc1cccc(Cn2nc(C3CC3)c3c(NC(=O)c4cnc5cc(OCCN6CCN(C)CC6)ccn45)cccc32)n1 (10 µM)	0	0	0	0	0	0	0	–	0	0	0	0	0	0	0	0	0	0	0	0
COc1cc2ncn(-c3cc(OCc4ccccc4C(F)(F)F)c(C(N)=O)s3)c2cc1OC (10 µM)	0	0	0	0	0	0	0	–	0	0	0	0	0	0	0	0	0	0	0	0
COc1cc2c(Nc3ccc(NC(=O)c4ccccc4)cc3)ncnc2cc1OCCCN1CCOCC1 (10 µM)	0	1	0	0	–	0	1	0	0	0	0	0	0	0	0	0	0	0	0	0
O=C1c2ccccc2-c2n[nH]c3cccc1c23 (10 µM)	0	0	0	0	–	0	0	0	0	0	0	0	0	0	–	–	–	–	–	0
c1cc(OCCN2CCCCC2)cc(-c2n[nH]c3ccc(-c4nnc[nH]4)cc23)c1 [CC-401 (hydrochloride)] (10 µM)	0	0	0	0	0	0	0	0	0	0	0	0	0	0	0	0	0	0	0	–
O=c1oc2ccccc2c(O)c1Cc1c(O)c2ccccc2oc1=O [Dicoumarol] (10 µM)	0	0	0	0	0	0	0	–	0	0	0	0	0	0	–	–	–	–	–	0
CC(=O)N1CCN(c2ccc(OCC3COC(Cn4ccnc4)(c4ccc(Cl)cc4Cl)O3)cc2)CC1 (centres undefined) [Ketoconazole] (2.5 µM)	0	0	0	0	0	0	0	–	0	0	0	0	0	0	0	0	0	0	0	0
CC(C)c1cnn2c(NCc3ccccc3)cc(NC[C@H]3CCNC[C@@H]3O)nc12 [Samuraciclib (hydrochloride)] (10 µM)	0	0	0	0	0	0	0	0	0	0	0	0	0	0	0	0	0	0	0	–
Cc1ccc(F)c(NC(=O)Nc2ccc(-c3cccc4[nH]nc(N)c34)cc2)c1 [Linifanib] (2.5 µM)	0	0	5	0	0	0	0	–	0	0	0	5	0	0	0	0	0	0	0	0
Nc1ncnc2c1c(-c1cccc(OCc3ccccc3)c1)cn2C1CC(CN2CCCC2)C1 (centres undefined) (2.5 µM)	0	0	0	0	–	0	0	0	0	0	0	0	0	0	–	–	–	–	–	0
COc1ccc(F)c(F)c1C(=O)c1cnc(NC2CCN(S(C)(=O)=O)CC2)nc1N (2.5 µM)	0	0	0	2	2	0	3	3	0	3	0	2	1	4	2	3	2	3	2	–

Given in CSV form: entries from further up.
Structure (SMILES),number of time points (CAMK2A),number of time points (CAMK2G),number of time points (CDK10),number of time points (CDK3),number of time points (CDK5),number of time points (CDK6),number of time points (CHEK2),number of time points (CSF1R),number of time points (CSK),number of time points (CSNK1A1),number of time points (CSNK1D),number of time points (DDR1),number of time points (DYRK1B),number of time points (DYRK2),number of time points (EGFR),number of time points (EGFR_G719S),number of time points (EGFR_G719S_T790M),number of time points (EGFR_L718V),number of time points (EGFR_L858R),number of time points (CDK2)
CC(C)(C)c1nc2c3cc[nH]c(=O)c3c3cc(F)ccc3c2[nH]1 [Pyridone 6] (10 µM),0,0,0,0,–,0,0,0,0,0,0,0,0,0,0,0,0,0,0,0
Nc1ncnc2c1c(-c1cccc(OCc3ccccc3)c1)cn2C1CC(CN2CCCC2)C1 (centres undefined) (2.5 µM),0,0,0,0,–,0,0,0,0,0,0,0,0,0,–,–,–,–,–,0

From the supplement of paper PMC12823440, “Inhibitors supercharge kinase turnover through native proteolytic circuits” (Nature, 2025)
